Assay results as given in PubChem BioAssay AID2685 (National Center for Advancing Translational Sciences (NCATS), 2010).
Some of the results follow. Shown are side measurements of this screen, not its main read-out; they come without a call. Compounds called inactive in the main read-out are mostly missing here. The note in brackets gives the kind of curve behind each potency; many fits are weak.

Assay: qHTS Assay for Lipid Storage Modulators in Drosophila S3 Cells;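 on cell number change: cells counted by Cell Tracker Red CMTPX staining in the red channel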
Details: BODIPY lipid droplet fluorescence, 18-24 h; for cell number change: measured here: cell count max response, cells fed with added oleic acid
Method in brief: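 Drosophila S3 cells got compounds at several concentrations plus oleic acid (400 uM solution). Laser-scanning cytometry with 488 nm excitation read lipid droplets at 500-530 nm and cells at 575-640 nm. Percent activity was relative to 20 uM Triacsin C.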

[1] = measured here: cell number channel AC50, cells fed with added oleic acid
[2] = measured here: lipid fluorescence (Fed channel) AC50, cells fed with added oleic acid

Compound: CCN(CC)S(=O)(=O)c1ccc(Cl)c(C(=O)OC)c1
- cell number change: 20.7%

Compound: Cc1cc(C)n(C(N)=NC(=O)c2ccc([N+](=O)[O-])cc2)n1
- cell number change: -43.3%
- AC50 [1]: 18400 nM [falling, single point]
- AC50 [2]: 29100 nM [falling, single point]

Compound: Cc1cccc(NC(=S)NC2CC3C=CC2C3)c1 (stereo unspecified)
- cell number change: 40.9%
- AC50 [1]: 9200 nM [rising, single point]
- AC50 [2]: 23100 nM [rising, single point]

Compound: CCOC(=O)c1sc(NC(=O)c2sccc2C)cc1C
- AC50 [1]: 2060 nM [rising, partial curve]
- AC50 [2]: 1460 nM [rising, partial curve]

Compound: CSc1ccccc1C(=O)N1CCC(n2nccc2NC(=O)C(C)(C)C)CC1
- cell number change: 11.6%

Compound: CCOC(=O)CSC1=C(C#N)C(c2ccccc2OCC)C(C#N)C(=O)N1 (stereo unspecified)
- AC50 [1]: 1300 nM [rising, single point]
- AC50 [2]: 411 nM [falling, full curve, poor fit]

Compound: COc1ccc(C(=O)[C@H]2[C@H]3C(=O)N(c4ccc(OC(C)=O)cc4)C(=O)[C@H]3C3C=CC=NN32)cc1 (stereo partly specified)
- cell number change: 27.9%
- AC50 [2]: 4110 nM [rising, single point]

Compound: CCN1CCN(c2cc3c(cc2F)c(=O)c(C(=O)O)cn3C2CC2)CC1
- cell number change: -53.5%
- AC50 [1]: 164 nM [falling, full curve]
- AC50 [2]: 164 nM [falling, full curve]

Compound: FC(F)Oc1ccc(NC(=S)NCc2nc3ccccc3[nH]2)cc1
- cell number change: 3.75%

Compound: O=C1COc2ccc(C(=O)COC(=O)c3ccc(S(=O)(=O)C(F)F)cc3)cc2N1
- cell number change: 31.3%
- AC50 [1]: 29100 nM [rising, single point]

Compound: CCn1c(=O)n(CC)c2cc(N3CCCC3)c(NC(=O)c3ccc(C)c([N+](=O)[O-])c3)cc21
- cell number change: 3.88%

Compound: O=C(CSc1nc2ccccc2c(=O)n1Cc1ccccc1)Nc1ccc(Br)cc1C(=O)O
- cell number change: 5.65%
- AC50 [2]: 651 nM [rising, full curve]

Compound: COc1cc(C(=O)Nc2ccc3c(c2)OCO3)ccc1OCc1c(C)noc1C
- AC50 [1]: 146 nM [rising, partial curve, poor fit]

Compound: CC(C)(C)n1nc2c(c1NC(=O)c1ccccc1C(F)(F)F)CS(=O)(=O)C2
- cell number change: 8.8%
- AC50 [2]: 820 nM [rising, full curve, poor fit]

Compound: CC1CCN(S(=O)(=O)N2CCC(C(=O)NCc3cccs3)CC2)CC1
- cell number change: 1.22%
- AC50 [2]: 3660 nM [rising, partial curve, poor fit]

Compound: CC(C)(C)n1ncc2c(=O)n(CC(=O)N3CCCCC3)cnc21
- cell number change: -43.5%
- AC50 [1]: 6510 nM [falling, single point]
- AC50 [2]: 7310 nM [falling, partial curve, poor fit]
